# Laboratory results: the supplement of paper PMC9135407
# Several values for one entry are separate records, joined by “and”; a condition that tells them apart may be missing. Equal values may be shown once. Where a name gives a salt, the structure may show the parent alone. ± gives the standard deviation of the averaged measurements. Some of the results follow. Baselines shift from plate to plate; read single values as rough.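 Primary human stellate myofibroblasts activated in culture; inactivation shown by regained lipid droplets. Readout: fraction of Hoechst-counted cells exceeding a per-plate Bodipy threshold, duplicate wells, each plate with DMSO negative and nortriptyline positive controls. Hits: control-normalized score beyond the plate's top-tenth-percentile nortriptyline wells, or among its three best wells. Final well concentrations unstated.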
# Test system: primary human hepatic stellate cells (donor 1)
# Test: percent Bodipy-positive cells; higher = more lipid droplet accumulation
# Conditions: 48 h
# [1] = library stock concentration: 10 mM
# [2] = library stock concentration: 3.33 mM
# [3] = library stock concentration: 1 mM
structure (smiles),measurement,setting,value
C[C@@H]1O[C@H](C[N+](C)(C)C)C[C@H]1O [(?)-Muscarine chloride],percent Bodipy-positive cells,[1],48.6 ± 3.1%
CCCCC[C@@H](/C=C/C=C\C/C=C\C/C=C\CCCC(=O)O)OO,percent Bodipy-positive cells,library stock concentration: 100 uM,7.24 ± 4.6%
CCCC(C)C1(CC)C(=O)NC(=O)NC1=O (centres undefined) [Pentobarbital],percent Bodipy-positive cells,library stock concentration: 8.8 mM,2.97 ± 0.14%
C=CCc1ccc2c(c1)OCO2 [Safrole],percent Bodipy-positive cells,[1],29.3 ± 0.45%
COP(=O)(OC)C(O)C(Cl)(Cl)Cl (centres undefined) [Trichlorfon],percent Bodipy-positive cells,,31.5 ± 5.7%
C[C@]12C[C@H]3S[C@H]3C[C@@H]1CC[C@@H]1[C@@H]2CC[C@]2(C)[C@@H](O)CC[C@@H]12 [Epitiostanol],percent Bodipy-positive cells,,11.2 ± 3.7%
c1ccc(Cn2ccnc2)cc1,percent Bodipy-positive cells,[1],15.7 ± 0.26%
Cc1cccc(Cc2c[nH]cn2)c1C [Detomidine HCl],percent Bodipy-positive cells,[2],13.3 ± 6.2%
same,percent Bodipy-positive cells,[1],44.3 ± 30%
CN1CC[C@]2(CCN3CCc4c(oc5ccccc45)[C@@H]3C2)N(C)C1=O,percent Bodipy-positive cells,[1],45 ± 21%
N#CC(C#N)=Cc1ccc(O)c(O)c1 [Tyrphostin 23],percent Bodipy-positive cells,[1],17.5 ± 5.2%
S=C=NCc1ccccc1 [Benzyl isothiocyanate],percent Bodipy-positive cells,[1],38.9 ± 3.3%
CCCC[N+]1(C)[C@@H]2C[C@@H](OC(=O)[C@H](CO)c3ccccc3)C[C@H]1[C@@H]1O[C@@H]12 (some centres undefined) [Butylscopolamine Bromide],percent Bodipy-positive cells,[2],5.412 ± 0.05%
same,percent Bodipy-positive cells,[1],7.53 ± 0.37%
COP(=O)(OC)OC=C(Cl)Cl [Dichlorvos],percent Bodipy-positive cells,library stock concentration: 9.1 mM,7.56 ± 0.63%
C[C@H]1CC[C@]2(NC1)O[C@H]1C[C@H]3[C@@H]4CC[C@H]5C[C@@H](O)CC[C@]5(C)[C@H]4CC[C@]3(C)[C@H]1[C@@H]2C [Tomatidine],percent Bodipy-positive cells,,35.3 ± 3.3%
NC(=O)CI [Iodoacetamide],percent Bodipy-positive cells,[1],100%
CCCCCCCCCCCCCC(=O)O[C@@H]1[C@@H](C)[C@@]2(O)[C@@H](C=C(CO)C[C@]3(O)C(=O)C(C)=C[C@@H]23)[C@@H]2C(C)(C)[C@]12OC(C)=O [Phorbol 12-myristate 13-acetate],percent Bodipy-positive cells,library stock concentration: 8.1 mM,81.9 ± 0.92%
"C[C@]12CCC(=O)C=C1C=C[C@@H]1[C@@H]2CC[C@@]2(C)[C@H]1CC[C@@]2(O)CCC(=O)O [Canrenoic acid, potassium salt]",percent Bodipy-positive cells,library stock concentration: 5 mM,12.2 ± 2.2%
same,percent Bodipy-positive cells,[1],21.5 ± 1.4%
C[C@]12CCC(=O)C=C1C=C[C@@H]1[C@@H]2CC[C@@]2(C)[C@H]1CC[C@@]2(O)CCC(=O)O [Canrenoic acid potassium salt],percent Bodipy-positive cells,,26.9 ± 5.7%
"CC[C@@H](C(=O)[C@@H](C)[C@@H](O)[C@H](C)[C@@H]1O[C@@H]([C@@H](CC)C(=O)O)CC[C@@H]1C)[C@H]1O[C@]2(C=C[C@@H](O)[C@]3(CC[C@@](C)([C@H]4CC[C@](O)(CC)[C@H](C)O4)O3)O2)[C@H](C)C[C@@H]1C [Salinomycin, sodium]",percent Bodipy-positive cells,[1],60.1 ± 3.6%
"COc1ccc2[nH]c3c(c2c1)CCNC3 [6-Methoxy-1,2,3,4-tetrahydro-9H-pyrido[3,4b] indole]",percent Bodipy-positive cells,[1],85.7 ± 8%
C(#CCN1CCCC1)CN1CCCC1 [Tremorine dihydrochloride],percent Bodipy-positive cells,,54.2 ± 25%
OC(Cc1ccncc1)C(Cl)(Cl)Cl (centres undefined),percent Bodipy-positive cells,[1],9.14 ± 2%
Cc1cccc(C)c1NC(=O)CN1CCCC1=O [Nefiracetam],percent Bodipy-positive cells,[2],10.6 ± 3.4%
CS(=O)(=O)Nc1ccc(Cc2noc(-c3ccc4[nH]cc(CCN)c4c3)n2)cc1,percent Bodipy-positive cells,[1],7.01% and 7.35%
O=[N+]([O-])/C=C/c1ccc2c(c1)OCO2,percent Bodipy-positive cells,[1],100%
CC(C)NC(C)Cc1ccc(I)cc1 (centres undefined) [Iofetamine hydrochloride],percent Bodipy-positive cells,[1],81.9 ± 5.5%
O=c1ccc2cc(O[C@@H]3O[C@H](CO)[C@@H](O)[C@H](O)[C@H]3O)c(O)cc2o1 [Aesculin],percent Bodipy-positive cells,[1],18.9 ± 6.3%
O=c1ccc2cc(O[C@@H]3O[C@H](CO)[C@@H](O)[C@H](O)[C@H]3O)c(O)cc2o1 [Esculin Hydrate],percent Bodipy-positive cells,,6.83 ± 1.4%
O=c1ccc2cc(O[C@@H]3O[C@H](CO)[C@@H](O)[C@H](O)[C@H]3O)c(O)cc2o1 [Esculin],percent Bodipy-positive cells,[2],7.82 ± 0.45%
same,percent Bodipy-positive cells,[1],8.13 ± 4.5%
COc1cc2c3cc1Oc1c(OC)c(OC)cc4c1[C@@H](Cc1cccc(c1)Oc1ccc(c(O)c1)C[C@@H]3N(C)CC2)N(C)CC4 [Berbamine hydrochloride],percent Bodipy-positive cells,[1],23.4 ± 6.8%
CN1CCCCC1Cn1cc(C(=O)c2cc([N+](=O)[O-])ccc2I)c2ccccc21 (centres undefined),percent Bodipy-positive cells,[3],35.8 ± 34%
same,percent Bodipy-positive cells,[2],17.4 ± 3.4%
same,percent Bodipy-positive cells,[1],69.5 ± 6.7%
COC(=O)N1CCN(C(=O)Cc2ccc(Cl)c(Cl)c2)C(CN2CCCC2)C1 (centres undefined),percent Bodipy-positive cells,[1],31.9 ± 2.6%
NCC(O)c1ccc(O)cc1 (centres undefined) [Octopamine hydrochloride],percent Bodipy-positive cells,[1],21.8% and 10.6%
NCC(O)c1ccc(O)cc1 (centres undefined) [(?)-Octopamine hydrochloride],percent Bodipy-positive cells,[1],46.3 ± 8.9%
C[C@]12CC[C@H]3[C@@H](CCC4=CC(=O)CC[C@@]43C)[C@@H]1CC[C@@H]2O [Testosterone],percent Bodipy-positive cells,library stock concentration: 6.9 mM,9.59 ± 3.6%
same,percent Bodipy-positive cells,[1],41.8% and 64.2%
c1ccc2c(c1)Nc1ccccc1S2 [Phenothiazine],percent Bodipy-positive cells,[2],7.28 ± 0.63%
same,percent Bodipy-positive cells,[1],35.6 ± 3.5%
c1ccc2c(c1)Nc1ccccc1S2,percent Bodipy-positive cells,[1],12.6 ± 2%
"c1cc2ccsc2c(N2CCNCC2)n1 [7-Piperazin-1-yl-thieno[2,3-c] Pyridine (hydrochloride)]",percent Bodipy-positive cells,[3],11.7 ± 7.3%
N=C(NCCC[C@H](N)C(=O)O)N[N+](=O)[O-] [N (g)-nitro-l-arginine],percent Bodipy-positive cells,[1],27.3 ± 4.2%
N=C(NCCC[C@H](N)C(=O)O)N[N+](=O)[O-] [NG-Nitro-L-arginine],percent Bodipy-positive cells,[1],31.6 ± 4.1%
O=c1c2ccccc2[se]n1-c1ccccc1 [Ebselen],percent Bodipy-positive cells,[3],8.31 ± 1.4%
Cc1ccc(/N=C/N(C)/C=N/c2ccc(C)cc2C)c(C)c1 [Amitraz],percent Bodipy-positive cells,library stock concentration: 6.8 mM,6.14 ± 1.7%
same,percent Bodipy-positive cells,[1],32.6 ± 6.7%
CCCCCCC(=O)O[C@H]1CC[C@H]2[C@@H]3C[C@@H](O)C4=CC(=O)CC[C@]4(C)[C@H]3CC[C@]12C [6.beta.-Testosterone Enanthate],percent Bodipy-positive cells,[3],12.9 ± 0.4%
CCCN(CCC)C1Cc2cc(OC)c(OC)cc2C1,percent Bodipy-positive cells,[1],15.1% and 9.38%
CC[C@]1(O)CC[C@H]2[C@@H]3CCC4=CCCC[C@@H]4[C@H]3CC[C@@]21C [Ethylestrenol],percent Bodipy-positive cells,[1],23.2 ± 7%
CC(=O)O[C@H]1C[C@@H]2CC[C@@H]3[C@H](CC[C@@]4(C)[C@H]3C[C@H]([N+]3(C)CCCCC3)[C@@H]4OC(C)=O)[C@@]2(C)C[C@@H]1[N+]1(C)CCCCC1 [Pancuronium],percent Bodipy-positive cells,[1],12.7 ± 5.4%
CC(=O)O[C@H]1C[C@@H]2CC[C@@H]3[C@H](CC[C@@]4(C)[C@H]3C[C@H]([N+]3(C)CCCCC3)[C@@H]4OC(C)=O)[C@@]2(C)C[C@@H]1[N+]1(C)CCCCC1 [Pancuronium dibromide],percent Bodipy-positive cells,[2],7 ± 4.2%
same,percent Bodipy-positive cells,[1],21.6 ± 4.2%
CC(=O)O[C@H]1C[C@@H]2CC[C@@H]3[C@H](CC[C@@]4(C)[C@H]3C[C@H]([N+]3(C)CCCCC3)[C@@H]4OC(C)=O)[C@@]2(C)C[C@@H]1[N+]1(C)CCCCC1 [Pancuronium bromide],percent Bodipy-positive cells,,10.7 ± 1.1%
same,percent Bodipy-positive cells,[1],22.2 ± 4.2%

# As a working copy, some entries already given.
structure (smiles),measurement,setting,value
c1ccc2c(c1)Nc1ccccc1S2,percent Bodipy-positive cells,[1],12.6 ± 2%
"c1cc2ccsc2c(N2CCNCC2)n1 [7-Piperazin-1-yl-thieno[2,3-c] Pyridine (hydrochloride)]",percent Bodipy-positive cells,[3],11.7 ± 7.3%
